Laboratory results reported in PMC7407982.

Experiments:
[1] = system: troponin T (TnT); assay: SERS sandwich on Au nanoplate; conditions: 10 pM protein, reporter N2, negligible signal, slightly above blank; 3'-(CH2)6-SH thiol; SERS sandwich: 300 mM NaCl, 20 mM Tris-HCl, 0.5 mM beta-mercaptoethanol, 20% (w/v) glycerol, 0.05% Tween 20, pH 8.0 (or with 20% human serum), 35 °C, 6 h; commercial protein; single-stranded DNA
[2] = target: cardiac troponin I (cTnI) (UniProt P19429); assay: binding assay; conditions: Kd method not stated, 3'-(CH2)6-SH thiol, SERS sandwich: 300 mM NaCl, 20 mM Tris-HCl, 0.5 mM beta-mercaptoethanol, 20% (w/v) glycerol, 0.05% Tween 20, pH 8.0 (or with 20% human serum), 35 °C, 6 h, single-stranded DNA
[3] = target: cardiac troponin I (cTnI) (UniProt P19429); assay: SERS sandwich on Au nanoplate; conditions: reporter on Au NP binds cTnI captured by N1; 3'-(CH2)6-SH thiol; SERS sandwich: 300 mM NaCl, 20 mM Tris-HCl, 0.5 mM beta-mercaptoethanol, 20% (w/v) glycerol, 0.05% Tween 20, pH 8.0 (or with 20% human serum), 35 °C, 6 h; label: 5'-Cy5; single-stranded DNA

Row | Sequence | binding result [1] | pKd ([2]; text instead gives 3.10 nM for probe-cTnI) | binding result [3] | pKd ([2]; text instead gives 3.37 nM for reporter-cTnI, label: 5'-Cy5)
1 | CGCATGCCAAACGTTGCCTCATAGTTCCCTCCCCGTGTCC [Probe aptamer] | no binding | 9.50 | – | –
2 | CGTGCAGTACGCCAACCTTTCTCATGCGCTGCCCCTCTTA [Reporter aptamer] | – | – | binds | 9.57

pKd: −log10 of the molar value. The exact form of at least one protein or probe is not confirmed. For some of these results: No signal at the amounts used counts as a negative. For some of these results: At least one verdict was read from the data and is not stated in words by the source.
